# Screening data, single-dose tests

A: 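Growth of Mycobacterium tuberculosis over 4 days (cholesterol / DPPC medium with tyloxapol); the read-out is not stated. Concentration: 50 µM. Direction is inferred from retests: higher values go with more growth inhibition. About 69,000 compounds were tested under these conditions; 0.54% (about 370) showed 50% or more at least once.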
B: 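Phenotypic screen: M. tuberculosis growth, glucose 7H9 medium, 3 days; the read-out is not stated. Compounds at 50 µM. Direction is inferred from retests: higher values go with more growth inhibition. Of about 69,000 compounds tested this way, about 760 (1.1%) reached 50% or more in at least one test.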

Results are given as percent effect.
How 0% and 100% were set is not recorded. Most values in the screen are low, and negative values occur.
The compounds are a random part of those screened.
Two or more numbers in one place are separate tests of the same structure; such repeats can differ widely.

structure: Cc1nc2c(c(N(C)C)n1)CCN(C(=O)CN1CCC(O)CC1)C2
A: -5.632
B: -10.83

structure: COCC1CN(C(=O)CC2Cc3ccccc3C2)Cc2c1cnn2C (configuration not stated)
A: 0.5625 and -9.885
B: -13.71

structure: Cc1ccc(C2CSCCN2C(=O)c2ccccn2)cc1 (configuration not stated)
A: 20.7
B: 8.587 and -13.74

structure: O=C(O)C(c1ccc2c(c1)OCO2)N1CCC(O)(c2cccnc2)CC1 (configuration not stated)
A: 6.265
B: -10.77

structure: Cc1cnccc1-n1nc(C(C)C)nc1CCN(C)S(C)(=O)=O
A: -10.82
B: -25.28

structure: Cc1ccc(N2CC3(COCCN(Cc4ccncc4)C3)OCC2=O)s1.O=C(O)C(F)(F)F.O=C(O)C(F)(F)F (configuration not stated)
A: 7.028 and -25.48
B: 10.72 and -8.247

structure: COCCN(C)c1ccc(NCc2ccsc2)nc1
A: -27.54
B: -52.45

structure: Cn1ncc(NCc2cccc(F)c2)c(Cl)c1=O
A: 14.09
B: 1.449

structure: Cc1noc(C)c1NC(=O)N1CCC(NC(=O)OC(C)(C)C)CC1
A: -15.82
B: -15.47 and 0.2726

structure: O=C(O)[C@@H]1CN(Cc2ccc3nsnc3c2)C[C@H]1c1cccnc1
A: 11.42
B: 25.69

structure: NC(=O)C(NC1CCN(CC2CCCCC2)CC1)c1ccccc1 (configuration not stated)
A: -10.37
B: -14.08 and 3.598

structure: Cn1ccc2ccnc(CC3CN(C(=O)c4cscn4)C3)c21
A: -4.51
B: 6.816

structure: NC(=O)c1cnn2c1NCC(CNCC1(c3ccccc3)CCC1)C2 (configuration not stated)
A: -13.59
B: -8.651

structure: CN(CCn1nc2ccccn2c1=O)CC(=O)NC1CC1
A: 2.302
B: -4.178 and 12.83

structure: CC(C)(C)C(=O)NCCc1cc2nc(-c3ccncc3)ccn2n1
A: 0.1973 and -5.075
B: 0.7842

structure: COc1c(CNC(C)C(=O)NC2CCCC2)c(C)nn1C (configuration not stated)
A: -5.813
B: -17.52

structure: c1ccc(-c2noc(CCCN3CCCC3Cn3cncn3)n2)cc1 (configuration not stated)
A: 13.32
B: 5.569 and 5.199

structure: Cn1nnnc1SCC1(O)CCCCC1
A: 20.35
B: 8.912

structure: COc1ncccc1CNC(=O)C1=NN(c2ccccc2)C(=O)CN1
A: -6.591
B: 21.75 and -0.6765

structure: CN(Cc1ccccn1)C(CO)c1cccc(Br)c1 (configuration not stated)
A: 21.67
B: 19.89

structure: C=C(C)Cn1ccc2cc(OC)c(F)cc2c1=O
A: 9.397
B: 3.872

structure: O=C(NCc1ccc(-c2ccn[nH]2)cc1)N1CCC(N2CCCC2)C1 (configuration not stated)
A: -3.664
B: -2.373

structure: Cc1nc2cc(C3CCN(Cc4ccccc4F)C3)nn2c(O)c1C (configuration not stated)
A: 17.51
B: 13.8

structure: CC1CCN(S(=O)(=O)N2CCCC(c3cccc(C(=O)O)c3)C2)CC1 (configuration not stated)
A: -5.657
B: 11.42 and -7.844

structure: [H][C@]12CN(Cc3ccccc3Cl)C[C@]1([H])N(CCOC)C(=O)CO2
A: 6.325
B: -3.596

structure: O=C(COC1CCCCC1)N1CCN(C(=O)Cc2ccccn2)CC1
A: 10.34
B: 13.1

For reference, 3 entries once more:

| structure | A | B |
|---|---|---|
| `Cc1cnccc1-n1nc(C(C)C)nc1CCN(C)S(C)(=O)=O` | -10.82 | -25.28 |
| `c1ccc(-c2noc(CCCN3CCCC3Cn3cncn3)n2)cc1` (configuration not stated) | 13.32 | 5.569 and 5.199 |
| `Cc1ccc(C2CSCCN2C(=O)c2ccccn2)cc1` (configuration not stated) | 20.7 | 8.587 and -13.74 |

Data taken from ChEMBL document CHEMBL3988442, “University of Dundee, Small-Polar-MMV Screening Library” (2021).